In PubChem BioAssay AID504834 (National Center for Advancing Translational Sciences (NCATS), 2011):
Hit rate of the full screen: of about 320,000 compounds, about 22,000 (6.9%) were called active. Inconclusive means that the source gave no clear call. Such entries were picked first, then a sample of the others. The call rests on the fitted dose curve; in most records, active means well fitted inhibition curve with a large enough effect; inconclusive means small, poorly fitted or top-dose-only effect, or another doubt; inactive means no such curve, though single readings can be large or run the other way. Potencies of inconclusive entries are doubtful fits and often do not repeat.

Assay: Primary qHTS for delayed death inhibitors of the malarial parasite plastid, 96 hour incubation
Details: P. falciparum luciferase reporter growth; series mostly up to 28.7 µM; activity change, negative = inhibition: at the top concentration
Method in brief: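 P. falciparum expressing integrated firefly luciferase, in erythrocytes at 2% hematocrit, 0.05% parasitemia, incubated with compounds 96 h at 37 C, 5% CO2. Growth inhibition read as loss of luminescence; two-generation exposure targets delayed-death apicoplast inhibitors.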
On the % scale 0 is the no-effect control and ±100 the full control effect; potency means the concentration at half of the fitted maximal effect.

Structure (SMILES)	Potency	activity change, negative = inhibition
O=C(N/N=C/c1sc(N2CCOCC2)nc1-c1ccccc1)c1ccc(O)cc1	inconclusive: 10.4 µM [inhibitor, partial curve]	–
CCOC(=O)CC(=O)Nc1cc(Cl)ccc1O	active: 11.7 µM	–
COc1cccc(CNc2cccc(C(F)(F)F)c2)c1O	inconclusive: 0.586 µM [inhibitor, partial curve, poor fit]	–
Nc1c(C(=O)NCCN2CCOCC2)c2nc3ccccc3nc2n1-c1cccc(F)c1	inconclusive: 11.7 µM [inhibitor, partial curve, poor fit]	–
Cc1cc(C)c(/C=N/n2c(C)cc(C)c(C#N)c2=O)c(C)c1	active: 10.4 µM	–
CSc1nc(C)c(CCOCc2ccc(F)cc2)c(=O)[nH]1	inconclusive: 1.47 µM [inhibitor, single point]	–
CCOc1cc(N2CCOCC2)c(OCC)cc1NC(=O)Cn1cnc2c(=O)n(C)c(=O)n(C)c21	–	inactive: 25.6%
C/C(=N\NC(=O)CSc1nc2ccccc2c(=O)n1-c1ccccc1C)c1cccs1	inconclusive: 8.28 µM [inhibitor, partial curve, poor fit]	–
N#CC1(NC(=O)COC(=O)c2ncc(Cl)c(Cl)c2Cl)CCCCC1	inconclusive: 0.738 µM [inhibitor, full curve, poor fit]	–
CC12CC3CC(C)(C1)CC(C(=O)N1CCN(C(=O)c4ccco4)CC1)(C3)C2	–	inactive: -19.1%
Cc1c(NC(=O)c2ccc(NS(=O)(=O)c3ccccc3)cc2)c(=O)n(-c2ccccc2)n1C	inconclusive: 10.4 µM [inhibitor, single point]	–
CCc1ccc(C2=NN(C(=O)CCC(=O)O)C(c3cccs3)C2)cc1 (centres undefined)	–	inactive: 6.67%
Cc1nnsc1C(=O)NC1CCCc2c1cnn2-c1ccc(F)cc1F (centres undefined)	inconclusive: 1.31 µM [inhibitor, partial curve]	–
COc1ccc(OC)c(S(=O)(=O)Nc2cc3c4c(c2)CC(=O)N4CCC3)c1	inconclusive: 10.4 µM [inhibitor, single point]	–
COc1ccc(S(=O)(=O)N(C)C)cc1NS(=O)(=O)c1ccc(F)c(F)c1F	inconclusive: 18.5 µM [inhibitor, single point]	–
Cc1cc(C)c2cc(CN(CCN(C)C)C(=O)Nc3ccccc3Cl)c(=O)[nH]c2c1	inconclusive: 16.5 µM [inhibitor, single point]	–
CCc1nnc(NC(=O)CCC(=O)N2CCN(S(=O)(=O)c3cc(Cl)ccc3OC)CC2)s1	inconclusive: 8.28 µM [inhibitor, partial curve]	–
CC1CCCCN1C(=O)COC(=O)c1ccc(=O)n(Cc2ccccc2)n1 (centres undefined)	–	inactive: 15.8%
CCOC(=O)C1CCCN(c2ncnc3c2cnn3-c2cccc(C)c2)C1 (centres undefined)	inconclusive: 1.85 µM [inhibitor, partial curve, poor fit]	–
Cc1c(C(=O)NN)nc2ccccn12	–	inactive: 0%
O=C(CN1C(=O)COc2ccc(S(=O)(=O)N3CCCCCC3)cc21)NCc1ccc(F)cc1	inconclusive: 2.08 µM [inhibitor, partial curve]	–
COC(=O)NNC1=CC(=O)CC(C)(C)C1	inconclusive: 2.94 µM [inhibitor, partial curve, poor fit]	–
CCCOc1c(OC)cc(Cl)cc1C1NC(=O)NC(C)=C1C(=O)NCc1ccccc1 (centres undefined)	inconclusive: 3.7 µM [inhibitor, partial curve, poor fit]	–

Structure (SMILES)	Potency	activity change, negative = inhibition
Cc1cccc(OCC(=O)Nc2ccccc2C(F)(F)F)c1	–	inactive: 30.5%
N#C/C(=C/c1ccc(OCc2ccc(C(=O)O)cc2)c(Br)c1)c1cccc(F)c1	inconclusive: 13.1 µM [inhibitor, single point]	–
COc1ccc(NC(=S)N2CCN(S(=O)(=O)c3ccc(OC)cc3)CC2)cc1	–	inactive: 0%
Cc1ccc(C2C=NN(c3ccccc3)C2=O)cc1 (centres undefined)	inconclusive: 2.08 µM [inhibitor, full curve]	–
Cc1nc2ncnn2c(C)c1Cc1cccc(C(F)(F)F)c1	inconclusive: 0.104 µM [inhibitor, full curve, poor fit]	–
CC1=C(C(=O)OCC2CCCO2)C(c2ccccc2OC(C)C)C2=C(CC(c3ccco3)CC2=O)N1 (centres undefined)	–	inactive: 26.6%
CC(Oc1ccc2c3c(c(=O)oc2c1)CCCC3)C(=O)NCC1CCC(C(=O)O)CC1 (centres undefined)	–	inactive: 14.3%
Cc1cc(=O)[nH]c(N/N=C/c2sccc2C)n1	inconclusive: 0.294 µM [inhibitor, single point]	–
CC12CCC(=O)N1C(C(=O)Nc1ccccc1N1CCCCC1)CS2 (centres undefined)	inconclusive: 8.28 µM [inhibitor, partial curve, poor fit]	–
O=c1oc2ccccc2c(NCc2ccccc2F)c1[N+](=O)[O-]	inconclusive: 10.4 µM [inhibitor, partial curve, poor fit]	–
Cn1c(=O)oc2cc(S(=O)(=O)NCCC(=O)N3CCN(c4ccccc4)CC3)ccc21	active: 13.1 µM	–
O=C(O)c1cccc2c1C(=O)c1ccc(-c3ccc(F)cc3OCc3ccccc3)cc1S2(=O)=O	inconclusive: 16.5 µM [inhibitor, single point]	–
CS(=O)(=O)NNC(=O)c1cc2cc3ccccc3nc2s1	active: 4.65 µM	–
COc1ccccc1-c1ccc(SCc2cccc(F)c2)nn1	–	inactive: 33%
Cc1ccc(Cn2ccc(NC(=O)c3cc(-c4ccc(F)cc4)on3)n2)cc1	active: 3.29 µM	–
CCC(C)n1c(SCC(=O)Nc2cc(C)on2)nc2ccccc2c1=O (centres undefined)	inconclusive: 18.5 µM [inhibitor, partial curve, poor fit]	–
COc1cccc2[nH]c3ccccc3c(=O)c12	inconclusive: 11.7 µM [inhibitor, single point]	–
Cc1ccccc1NC(=S)N(CCCN1CCOCC1)Cc1cccs1	active: 3.7 µM	–
CN1CCN(C(=O)C2=C[C@@H](c3coc4ccccc4c3=O)C[C@@H](OCc3ccc(CO)cc3)O2)CC1	inconclusive: 2.94 µM [inhibitor, partial curve, poor fit]	–
COc1ccc(S(=O)(=O)N2CCN(CC(=O)Nc3ccccc3OC)CC2)cc1	inconclusive: 4.15 µM [inhibitor, partial curve, poor fit]	–
C/C(=N\N1CCN(c2ccccc2)CC1)c1ccncc1	–	inactive: 45.1%
COc1ccc(C(=O)NC(=S)N2CCCc3ccccc32)cc1OC	inconclusive: 9.28 µM [inhibitor, single point]	–
CC1CCCCN1CCCNC(=O)Cn1ncc2c([nH]c3ccccc32)c1=O (centres undefined)	inconclusive: 18.5 µM [inhibitor, single point]	–

Among those listed so far, these have an aryl thioether with sulfur outside any ring.
Structure (SMILES)	Potency	activity change, negative = inhibition
CSc1nc(C)c(CCOCc2ccc(F)cc2)c(=O)[nH]1	inconclusive: 1.47 µM [inhibitor, single point]	–
C/C(=N\NC(=O)CSc1nc2ccccc2c(=O)n1-c1ccccc1C)c1cccs1	inconclusive: 8.28 µM [inhibitor, partial curve, poor fit]	–
COc1ccccc1-c1ccc(SCc2cccc(F)c2)nn1	–	inactive: 33%
CCC(C)n1c(SCC(=O)Nc2cc(C)on2)nc2ccccc2c1=O (centres undefined)	inconclusive: 18.5 µM [inhibitor, partial curve, poor fit]	–

The list goes on:

Structure (SMILES)	Potency	activity change, negative = inhibition
CCCCn1c(O)c(N=NC(=O)c2ccncc2)c2cc(Br)ccc21	inconclusive: 14.7 µM [inhibitor, partial curve, poor fit]	–
O=C(Cc1ccccc1)Nc1ccc(F)cc1	–	inactive: 38.4%
OC1(c2ccc3c(c2)OCO3)CCN(Cc2ccccn2)CC1	–	inactive: -19%
COc1ccc(OC)c(S(=O)(=O)CC(O)COc2ccccc2Cl)c1 (centres undefined)	inconclusive: 3.7 µM [inhibitor, partial curve]	–
COc1cc(OC)cc(C(=O)NC(=S)Nc2ccc(NC(=O)c3ccco3)cc2)c1	–	inactive: 19.8%
Nc1scc[n+]1Cc1cccc2cccnc12	inconclusive: 8.28 µM [inhibitor, partial curve, poor fit]	–
O=C(CCCN=C1NS(=O)(=O)c2ccccc21)OCC(=O)c1ccc(F)c(F)c1	–	inactive: 63.8%
Cc1cc(C)c(C)c(OCCn2ccnc2)c1	inconclusive: 7.38 µM [inhibitor, partial curve]	–
N#CC1=C2SCN(Cc3ccccc3)CN2C(=O)CC1c1cccs1 (centres undefined)	–	inactive: -21.9%
CCOCCCN(CC(=O)NC1CCCC1)C(=O)C(=O)Nc1ccc2c(c1)OCCO2	–	inactive: -0.212%
CC(C)(C)C1(O)CC(C(F)(F)F)=NN1C(=O)Cc1ccc([N+](=O)[O-])cc1 (centres undefined)	inconclusive: 10.4 µM [inhibitor, single point]	–
CCSc1cc(N2CCCC2)nc(-c2ccc(C)cc2)n1	inconclusive: 18.5 µM [inhibitor, single point]	–
O=C(O)C1CC(=O)N(Cc2cccs2)C1 (centres undefined)	inconclusive: 11.7 µM [inhibitor, single point]	–
N#Cc1c(NC(=O)C2CC(Cl)=CCC2C(=O)O)sc2c1CCCC2 (centres undefined)	–	inactive: -1.79%
CC(C)NC(=O)NC(=O)COC(=O)c1cc(S(=O)(=O)N2CCCCC2)ccc1N1CCOCC1	inconclusive: 0.0029 µM [inhibitor, full curve, poor fit]	–
O=C(Nc1cccc(C(F)(F)F)c1)c1scc2c1OCCO2	inconclusive: 3.29 µM [inhibitor, partial curve, poor fit]	–
N#CC1=C(N)N(c2ccc(Oc3ccccc3)cc2)C(=O)C1	inconclusive: 6.57 µM [inhibitor, partial curve]	–
COc1cccc(/C=N\NC(=O)c2ccc(Cn3cc(Br)c([N+](=O)[O-])n3)o2)c1O	inconclusive: 3.29 µM [inhibitor, full curve]	–
CCOC(=O)CSc1n[nH]c(NC(C)=O)n1	–	inactive: 9.9%
Cc1ccc(Cn2nnc3c(=O)n(CC(=O)OCc4ccccc4)cnc32)cc1	inconclusive: 2.33 µM [inhibitor, single point]	–
O=S(=O)([N-]c1nc2ccccc2nc1-[n+]1ccc(CCCc2ccccc2)cc1)c1cccs1	active: 5.22 µM	–
Cc1ccc(C)c(N2CCN(CCCNC(=O)Cn3c(=O)c4cccn4c4cccnc43)CC2)c1	inconclusive: 11.7 µM [inhibitor, partial curve]	–
COc1ccc2c(Cl)c(C(=O)NN3CCN(C)CC3)sc2c1	inconclusive: 3.7 µM [inhibitor, single point]	–
